According to publication PMC4164675:
No signal at the amounts used counts as a negative. The exact form of at least one protein or probe is not confirmed.

Chains of the proteins cited; added tags and fusions are not shown. Lines headed by an entry give the natural chain unless they say otherwise; changes in a name come on top.
UniProt P26651: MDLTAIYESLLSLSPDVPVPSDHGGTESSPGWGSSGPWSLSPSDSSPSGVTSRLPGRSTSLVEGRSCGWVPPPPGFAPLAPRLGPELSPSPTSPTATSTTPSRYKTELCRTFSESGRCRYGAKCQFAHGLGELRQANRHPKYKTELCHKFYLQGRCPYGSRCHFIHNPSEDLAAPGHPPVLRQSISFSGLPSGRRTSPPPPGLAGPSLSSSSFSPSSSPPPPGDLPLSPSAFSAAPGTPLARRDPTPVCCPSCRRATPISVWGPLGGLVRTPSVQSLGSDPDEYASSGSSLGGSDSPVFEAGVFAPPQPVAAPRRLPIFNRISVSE

Target: TTP (tristetraprolin) (Homo sapiens) (UniProt P26651)
Assay: EMSA
Conditions: 50 and 100 ng TTP in 20 ul, 2 mg/ml tRNA, 10 mM HEPES pH 7.3, 40 mM KCl, 3 mM MgCl2, 2 mM DTT, 5% glycerol, room temperature, 30 min, 6% native PAGE, recombinant protein, residues 1-326, protein details: His-tag cleaved with AcTEV, label: 3' biotin, probe letters rebuilt from the primers and the genome, part of a longer molecule

Row | Sequence | binding result
1 | AGGAAACAGUCAUUUGCGCACAACUUUAAAAGUCUGCAUUACAUUCCUCGAUAAUGUUGUGGUUUGUUGCCGUUGCCAAGAAUUGAAAACAAAAAGUUUAAAAAAAAUAAUAAUAAAUUGCAUGCUGCUUUAAUUGUGAAUUGAUAAUAAACUGUCCCUCUUUCAGAAAACAGAUU [U2 RNA (distal fragment of BDNF-S 3'UTR)] | no binding
2 | UGGAUUUAUGUUGUAUAGAUUAUAUUGAGACAAAAUUAUCUAUUUGUAUAUAUACAUAACAGGGUAAAUUAUUCAGUUAAGAAAAAAUAAUUUUAUGAACUGCAUGUAUAAAUGAAGUUUAUACAGUACAGUGGUUCUACAAUCUAUUUAUUGGACAUAUCCAUGACCU [U1 RNA (5' proximal fragment of BDNF 3'UTR)] | binds
